Test results taken from the supplement of paper PMC12067093, “Discovery and optimisation of a covalent ligand for TRIM25 and its application to targeted protein ubiquitination” (Chemical Science, 2025).
The list shows a part of the results.

Protein sequences, listed by entry. Tags and fused reporters are not part of them. Lines headed by an entry give the natural chain unless they say otherwise; changes in a name come on top.
UniProt P48960: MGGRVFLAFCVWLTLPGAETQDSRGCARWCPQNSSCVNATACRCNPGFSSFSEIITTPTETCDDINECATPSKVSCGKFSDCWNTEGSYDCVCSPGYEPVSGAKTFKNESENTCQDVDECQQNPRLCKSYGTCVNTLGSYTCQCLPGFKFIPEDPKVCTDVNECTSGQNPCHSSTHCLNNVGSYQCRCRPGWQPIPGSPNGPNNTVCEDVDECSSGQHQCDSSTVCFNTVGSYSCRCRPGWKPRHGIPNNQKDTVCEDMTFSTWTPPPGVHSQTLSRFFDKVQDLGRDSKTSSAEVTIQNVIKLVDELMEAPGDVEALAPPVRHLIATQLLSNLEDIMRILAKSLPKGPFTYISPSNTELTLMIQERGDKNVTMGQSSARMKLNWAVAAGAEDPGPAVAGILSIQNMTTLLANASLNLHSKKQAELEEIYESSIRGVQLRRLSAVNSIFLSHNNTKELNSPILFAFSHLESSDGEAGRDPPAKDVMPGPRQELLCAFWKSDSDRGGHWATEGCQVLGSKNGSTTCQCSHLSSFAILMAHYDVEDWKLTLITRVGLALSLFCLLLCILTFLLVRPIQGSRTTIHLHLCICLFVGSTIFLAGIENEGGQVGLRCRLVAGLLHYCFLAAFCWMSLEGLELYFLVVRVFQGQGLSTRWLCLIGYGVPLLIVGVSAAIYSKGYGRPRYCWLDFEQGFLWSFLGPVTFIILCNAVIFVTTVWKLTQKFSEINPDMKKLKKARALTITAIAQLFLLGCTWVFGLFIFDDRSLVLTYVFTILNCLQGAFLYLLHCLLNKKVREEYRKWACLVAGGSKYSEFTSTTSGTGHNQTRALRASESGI
UniProt P49454: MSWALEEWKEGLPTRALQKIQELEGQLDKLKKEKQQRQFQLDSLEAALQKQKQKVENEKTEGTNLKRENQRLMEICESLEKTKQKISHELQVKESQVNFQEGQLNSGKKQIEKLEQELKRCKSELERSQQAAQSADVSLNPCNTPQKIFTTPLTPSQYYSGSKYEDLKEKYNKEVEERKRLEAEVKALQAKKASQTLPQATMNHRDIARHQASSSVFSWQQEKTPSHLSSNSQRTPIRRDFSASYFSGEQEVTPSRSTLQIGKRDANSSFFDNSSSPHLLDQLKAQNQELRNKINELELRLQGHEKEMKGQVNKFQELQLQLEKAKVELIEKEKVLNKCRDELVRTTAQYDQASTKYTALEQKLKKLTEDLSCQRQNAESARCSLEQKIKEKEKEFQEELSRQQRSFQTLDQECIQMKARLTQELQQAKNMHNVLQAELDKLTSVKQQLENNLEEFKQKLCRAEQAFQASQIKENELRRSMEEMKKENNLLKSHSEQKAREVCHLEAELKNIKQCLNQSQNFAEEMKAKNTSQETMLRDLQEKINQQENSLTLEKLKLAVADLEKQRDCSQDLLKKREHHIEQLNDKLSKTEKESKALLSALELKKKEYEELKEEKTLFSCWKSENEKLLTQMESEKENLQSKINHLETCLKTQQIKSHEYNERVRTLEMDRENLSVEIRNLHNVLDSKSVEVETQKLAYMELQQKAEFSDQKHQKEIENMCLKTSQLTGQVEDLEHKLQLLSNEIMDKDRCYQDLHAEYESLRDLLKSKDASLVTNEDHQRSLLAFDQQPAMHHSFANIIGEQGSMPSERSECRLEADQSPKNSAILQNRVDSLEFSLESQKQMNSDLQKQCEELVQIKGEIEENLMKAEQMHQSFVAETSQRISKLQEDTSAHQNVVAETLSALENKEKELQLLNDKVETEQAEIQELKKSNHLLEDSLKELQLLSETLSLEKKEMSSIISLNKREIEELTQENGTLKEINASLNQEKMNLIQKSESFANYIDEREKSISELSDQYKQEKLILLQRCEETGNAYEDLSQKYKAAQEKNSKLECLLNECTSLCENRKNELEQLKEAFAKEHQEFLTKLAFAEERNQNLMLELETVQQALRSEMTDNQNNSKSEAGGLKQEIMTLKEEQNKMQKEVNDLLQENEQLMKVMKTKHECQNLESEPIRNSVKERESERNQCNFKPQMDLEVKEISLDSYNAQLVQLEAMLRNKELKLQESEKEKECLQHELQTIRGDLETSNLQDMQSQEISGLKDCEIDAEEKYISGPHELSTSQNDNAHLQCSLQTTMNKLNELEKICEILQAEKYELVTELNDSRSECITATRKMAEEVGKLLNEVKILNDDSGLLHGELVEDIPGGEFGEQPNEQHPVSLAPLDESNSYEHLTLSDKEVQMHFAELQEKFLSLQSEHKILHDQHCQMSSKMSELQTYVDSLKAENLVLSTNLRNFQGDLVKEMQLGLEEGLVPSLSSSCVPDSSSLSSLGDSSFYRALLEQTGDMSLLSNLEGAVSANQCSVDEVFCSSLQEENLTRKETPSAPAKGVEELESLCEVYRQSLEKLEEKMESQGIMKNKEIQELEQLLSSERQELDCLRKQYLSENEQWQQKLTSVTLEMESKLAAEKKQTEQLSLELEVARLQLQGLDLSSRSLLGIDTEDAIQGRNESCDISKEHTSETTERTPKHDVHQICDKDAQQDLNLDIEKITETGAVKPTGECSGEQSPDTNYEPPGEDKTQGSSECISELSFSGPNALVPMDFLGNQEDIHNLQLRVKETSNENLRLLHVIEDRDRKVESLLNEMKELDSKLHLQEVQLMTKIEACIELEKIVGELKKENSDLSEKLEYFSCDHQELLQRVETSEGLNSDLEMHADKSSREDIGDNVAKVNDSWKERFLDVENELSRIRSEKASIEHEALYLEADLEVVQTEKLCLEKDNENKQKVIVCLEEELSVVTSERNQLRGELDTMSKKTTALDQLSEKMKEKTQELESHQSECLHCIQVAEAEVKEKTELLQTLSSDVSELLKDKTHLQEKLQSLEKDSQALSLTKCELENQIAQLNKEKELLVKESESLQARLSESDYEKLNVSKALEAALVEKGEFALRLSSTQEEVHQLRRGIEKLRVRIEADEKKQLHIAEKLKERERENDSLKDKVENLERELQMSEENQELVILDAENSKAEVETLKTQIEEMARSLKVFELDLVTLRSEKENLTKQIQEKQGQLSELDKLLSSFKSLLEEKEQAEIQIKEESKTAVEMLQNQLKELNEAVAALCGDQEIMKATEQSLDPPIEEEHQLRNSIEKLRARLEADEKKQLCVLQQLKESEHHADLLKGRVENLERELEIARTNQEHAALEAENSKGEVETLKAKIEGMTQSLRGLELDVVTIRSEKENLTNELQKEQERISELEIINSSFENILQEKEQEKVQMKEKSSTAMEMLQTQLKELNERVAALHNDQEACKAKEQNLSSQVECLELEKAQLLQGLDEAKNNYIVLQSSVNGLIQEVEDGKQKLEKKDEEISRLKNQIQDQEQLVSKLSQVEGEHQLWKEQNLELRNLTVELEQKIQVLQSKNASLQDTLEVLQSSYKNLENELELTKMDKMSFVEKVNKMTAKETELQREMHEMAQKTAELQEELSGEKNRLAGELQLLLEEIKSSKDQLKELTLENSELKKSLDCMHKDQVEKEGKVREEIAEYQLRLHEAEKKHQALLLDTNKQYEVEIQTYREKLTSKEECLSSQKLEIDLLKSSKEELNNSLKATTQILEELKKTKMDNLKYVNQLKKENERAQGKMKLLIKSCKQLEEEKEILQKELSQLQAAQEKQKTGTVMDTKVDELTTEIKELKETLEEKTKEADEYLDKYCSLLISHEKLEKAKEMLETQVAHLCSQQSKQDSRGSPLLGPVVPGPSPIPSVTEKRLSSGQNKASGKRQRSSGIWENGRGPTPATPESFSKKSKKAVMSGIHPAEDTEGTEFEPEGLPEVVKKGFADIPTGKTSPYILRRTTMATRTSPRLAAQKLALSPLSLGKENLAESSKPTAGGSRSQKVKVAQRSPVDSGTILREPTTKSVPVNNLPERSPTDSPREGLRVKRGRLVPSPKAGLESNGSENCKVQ
UniProt P30260, whole entry, looked up: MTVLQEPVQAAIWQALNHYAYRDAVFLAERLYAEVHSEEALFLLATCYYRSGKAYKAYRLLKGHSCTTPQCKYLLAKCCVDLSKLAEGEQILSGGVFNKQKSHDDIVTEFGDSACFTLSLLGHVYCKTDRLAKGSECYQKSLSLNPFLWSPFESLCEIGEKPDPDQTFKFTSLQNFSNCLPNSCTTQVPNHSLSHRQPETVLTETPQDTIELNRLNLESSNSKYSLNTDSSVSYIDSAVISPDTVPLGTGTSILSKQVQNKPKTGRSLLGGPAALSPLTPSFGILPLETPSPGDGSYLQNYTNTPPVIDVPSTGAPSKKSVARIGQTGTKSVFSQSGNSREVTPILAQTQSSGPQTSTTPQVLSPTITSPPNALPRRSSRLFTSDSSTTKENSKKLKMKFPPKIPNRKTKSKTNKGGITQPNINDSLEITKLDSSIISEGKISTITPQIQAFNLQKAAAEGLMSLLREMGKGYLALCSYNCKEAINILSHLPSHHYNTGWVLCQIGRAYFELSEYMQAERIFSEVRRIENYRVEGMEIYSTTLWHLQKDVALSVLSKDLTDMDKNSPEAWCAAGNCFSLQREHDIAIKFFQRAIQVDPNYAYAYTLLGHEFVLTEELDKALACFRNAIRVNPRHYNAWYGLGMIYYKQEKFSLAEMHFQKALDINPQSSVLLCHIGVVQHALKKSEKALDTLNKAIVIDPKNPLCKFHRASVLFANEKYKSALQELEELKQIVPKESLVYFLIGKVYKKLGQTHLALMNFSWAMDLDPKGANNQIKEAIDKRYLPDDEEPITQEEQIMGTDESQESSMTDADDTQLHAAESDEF
UniProt O94986: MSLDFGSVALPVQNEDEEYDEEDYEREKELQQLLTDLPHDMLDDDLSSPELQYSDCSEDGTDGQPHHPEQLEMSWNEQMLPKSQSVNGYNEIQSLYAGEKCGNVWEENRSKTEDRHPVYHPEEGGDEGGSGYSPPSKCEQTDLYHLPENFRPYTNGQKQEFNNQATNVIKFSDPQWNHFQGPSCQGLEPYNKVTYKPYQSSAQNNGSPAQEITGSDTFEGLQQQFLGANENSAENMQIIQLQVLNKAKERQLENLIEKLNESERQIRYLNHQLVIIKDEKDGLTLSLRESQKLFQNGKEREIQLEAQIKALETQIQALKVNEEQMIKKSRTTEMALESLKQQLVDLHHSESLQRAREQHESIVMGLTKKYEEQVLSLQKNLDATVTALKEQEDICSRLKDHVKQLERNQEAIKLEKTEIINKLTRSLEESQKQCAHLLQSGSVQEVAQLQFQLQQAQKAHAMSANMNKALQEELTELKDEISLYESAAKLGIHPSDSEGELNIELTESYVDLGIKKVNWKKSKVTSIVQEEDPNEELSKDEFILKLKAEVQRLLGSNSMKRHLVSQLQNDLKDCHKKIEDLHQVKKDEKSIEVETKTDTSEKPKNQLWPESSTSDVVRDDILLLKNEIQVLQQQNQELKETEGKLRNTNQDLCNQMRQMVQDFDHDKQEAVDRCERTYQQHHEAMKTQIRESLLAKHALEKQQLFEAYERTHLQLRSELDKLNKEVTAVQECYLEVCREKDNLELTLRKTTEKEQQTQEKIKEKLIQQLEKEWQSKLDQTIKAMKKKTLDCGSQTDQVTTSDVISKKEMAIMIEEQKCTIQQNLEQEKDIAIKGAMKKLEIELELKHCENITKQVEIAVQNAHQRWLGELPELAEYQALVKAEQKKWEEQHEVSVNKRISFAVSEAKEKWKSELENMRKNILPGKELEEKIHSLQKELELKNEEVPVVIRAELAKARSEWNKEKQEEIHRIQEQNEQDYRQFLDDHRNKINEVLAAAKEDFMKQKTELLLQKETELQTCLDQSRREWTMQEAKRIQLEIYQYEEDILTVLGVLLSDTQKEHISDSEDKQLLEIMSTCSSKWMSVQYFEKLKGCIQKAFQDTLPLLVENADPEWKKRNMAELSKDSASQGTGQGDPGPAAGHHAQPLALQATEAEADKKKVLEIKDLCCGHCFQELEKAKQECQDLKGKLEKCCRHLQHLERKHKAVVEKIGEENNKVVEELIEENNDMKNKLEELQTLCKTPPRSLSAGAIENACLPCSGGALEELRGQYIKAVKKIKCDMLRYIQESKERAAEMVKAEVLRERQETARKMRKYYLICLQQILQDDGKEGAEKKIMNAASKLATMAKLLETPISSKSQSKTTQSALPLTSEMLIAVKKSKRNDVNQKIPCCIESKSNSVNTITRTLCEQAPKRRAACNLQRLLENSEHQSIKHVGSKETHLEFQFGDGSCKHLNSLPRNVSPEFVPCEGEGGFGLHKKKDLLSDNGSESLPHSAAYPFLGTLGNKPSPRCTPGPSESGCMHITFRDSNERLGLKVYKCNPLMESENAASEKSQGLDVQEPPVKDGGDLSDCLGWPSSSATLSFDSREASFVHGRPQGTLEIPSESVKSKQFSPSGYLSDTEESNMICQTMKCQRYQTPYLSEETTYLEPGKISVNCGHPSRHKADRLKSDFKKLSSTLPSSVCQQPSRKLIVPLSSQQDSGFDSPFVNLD

Compound: CC1Cc2ccccc2N1C(=O)C1CCCN(C1)C(=O)CCl (mixture of isomers) [TRIM25 ligand 11 (diastereomer mixture)]
Test: probe-labelled cysteine peptide fold change vs DMSO (competition) (log2 fold change); higher = less target engagement (more negative = stronger competition)
Conditions: THP-1, incubation time: 4 h
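Also: competitive chemoproteomic profiling in live THP-1 cells with an iodoacetamide desthiobiotin (IA-DTB) probe, comparing probe-labelled peptide intensities in compound-treated cells against DMSO-treated controls.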

Row | Target | probe-labelled cysteine peptide fold change (10 µM) | probe-labelled cysteine peptide fold change (50 µM)
1 | CEP350_Q5VT06_2716_LCTPLLDLLTR (UniProt Q5VT06) | -0.0855 | -0.0909
2 | CD97_P48960_513_GGHWATEGCQVLGSK (UniProt P48960) | 0.104 | -0.0514
3 | CENPF_P49454_2985_EMLETQVAHLCSQQSK (UniProt P49454) | 0.00541 | 0.0165
4 | CDC27_P30260_673_ALDINPQSSVLLCHIGVVQHALK (UniProt P30260) | 0.078 | 0.134
5 | CEP170_Q5SW79_30_EMIFVGRDDCELMLQSR (UniProt Q5SW79) | -0.0857 | -0.132
6 | CEP152_O94986_1167_DLCCGHCFQELEK (UniProt O94986) | -0.0593 | 0.0339
7 | CENPF_P49454_339_CRDELVR (UniProt P49454) | 0.0543 | 0.151
